{
  "sequences": {"note": "Amino acid sequences for entries named in this document (tags omitted).", "UniProt P30560, whole entry": "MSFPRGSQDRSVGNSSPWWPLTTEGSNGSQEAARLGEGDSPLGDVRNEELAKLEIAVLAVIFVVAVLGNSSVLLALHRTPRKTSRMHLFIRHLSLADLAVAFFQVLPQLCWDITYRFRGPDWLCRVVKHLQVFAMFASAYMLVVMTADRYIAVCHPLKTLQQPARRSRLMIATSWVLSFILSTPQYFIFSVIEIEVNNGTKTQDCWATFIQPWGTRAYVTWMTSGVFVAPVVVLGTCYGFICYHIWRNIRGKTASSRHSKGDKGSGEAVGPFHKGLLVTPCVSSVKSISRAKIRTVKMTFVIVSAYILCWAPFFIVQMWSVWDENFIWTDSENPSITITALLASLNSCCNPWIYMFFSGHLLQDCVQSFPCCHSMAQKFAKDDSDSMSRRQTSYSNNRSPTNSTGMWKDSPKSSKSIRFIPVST", "UniProt P32307, whole entry": "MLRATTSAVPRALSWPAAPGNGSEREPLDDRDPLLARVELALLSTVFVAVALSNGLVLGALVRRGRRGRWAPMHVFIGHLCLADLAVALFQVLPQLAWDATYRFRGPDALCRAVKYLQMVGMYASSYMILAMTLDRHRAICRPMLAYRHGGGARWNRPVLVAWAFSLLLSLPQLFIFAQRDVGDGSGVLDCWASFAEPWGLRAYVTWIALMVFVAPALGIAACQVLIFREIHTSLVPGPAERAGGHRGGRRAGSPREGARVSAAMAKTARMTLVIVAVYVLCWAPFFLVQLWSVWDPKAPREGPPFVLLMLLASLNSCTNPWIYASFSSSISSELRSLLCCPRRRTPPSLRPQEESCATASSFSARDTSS"},
  "source": "patent US4604378A",
  "about": "“Basic V1 -vasopressin antagonists” (SmithKline Beckman Corporation, priority 1984, dated 1986)",
  "key": {"[1]": {"biological_target": "T1, V1 -vasopressin receptors (Rattus norvegicus, UniProt P30560)", "T1 construct": "Rat liver membrane; from tissue; host or cells: rat liver plasma membranes", "assay": "V1 binding to plasma membranes of rat liver", "conditions": "rat liver membrane"}, "[2]": {"biological_target": "T2, V2 -vasopressin receptors (Sus scrofa, UniProt P32307)", "T2 construct": "Medullary pig kidney tissue; from tissue; host or cells: medullary pig (hog) kidney tissue", "assay": "V2-vasopressin receptor binding, inhibition of 3H-LVP binding, medullary pig kidney tissue", "description": "Antagonistic activity at the V1 -vasopressin receptors is determined in a protocol which measures the reversal of the vasopressin-induced contraction of rat thoracic aorta tissue. This is expressed as KB (nM) in the table below. Such anti-pressor activity is confirmed in a similar in vitro protocol using binding to the plasma membranes of rat liver. V2 -vasopressin antagonism is determined as receptor binding ability measured by inhibition of 3H-LVP binding (KB as nM), by inhibition of adenylate cyclase activation by vasopressin in the medullary tissue of hog kidneys (Ki as nM) or in vivo in the hydropenic rat protocol (ED300 μg/kg. These procedures are described in the literature: F. Stassen et al., J. Pharmacology and Experimental Therapeutics, 223 50 (1982); F. Stassen et al., lst International Conference on Diuretics, Miami, Fla., Mar. (1984). Antagonistic activity at oxytocin receptors is determined in the isolated rat uterus protocol: W. Sawyer, et al., Endocrinology 106 81 (1979); P. Melin, et al., J. of Endocrinology 88 173 (1981).\n^a Medullary pig kidney tissue, […]"}},
  "note": "At least one structure is not confirmed: it was looked up by name or label, or the drawing left a doubt. *1 amine or outer side, *2 acyl side, *3 side chain or, on linkers, in order; H or OH if unused. Where a SMILES comes first, the peptide text is derived from it. Bridges are numbered along the chain shown (N, C = ends). X1 = CC(C)(CC(=O)[*:1])S[*:2]",
  "data": [
    {"compound": "COc1ccc(C[C@@H]2NC(=O)CC(C)(C)SSC[C@@H](C(=O)N3CCC[C@H]3C(=O)N[C@@H](CCCN=C(N)N)C(=O)NCC(N)=O)NC(=O)[C@H](CC(N)=O)NC(=O)[C@H](CCC(N)=O)NC(=O)[C@H](Cc3ccccc3)NC2=O)cc1", "note": "[B] (Y(Me)FQNCPRG-NH2; linker N-5 via X1)", "values": [
      {"measurement": "Kb", "setting": "[1]", "result": 2.9, "unit": "nM"},
      {"measurement": "Kb", "setting": "[2]", "result": 70, "unit": "nM"}
    ]}
  ]
}
